{"source": "patent US10278979B2", "about": "“Therapeutic agent for intractable leukemia” (RIKEN, priority 2015, dated 2019)", "key": {"[1]": {"system": "leukemia cells invading the liver and the kidney", "experiment": "Leukemia humanized mouse, invasion of leukemia cells in liver and kidney", "type": "in vivo", "conditions": "after treatment; FIG. 6"}, "[2]": {"system": "MLL cells (MLL-AF9 ALL cells)", "experiment": "Secondary transplantation of MLL cells remaining after treatment into neonatal NSG mice", "type": "in vivo, mouse", "conditions": "cells taken from treated primary recipient, FIG. 7", "description": "Finally, human leukemia cells remaining in the bone marrow were purified by sorting and transplanted to neonatal NSG mice (secondary transplantation).\nMLL cells (MLL-AF9 ALL cells) were transplanted (primary transplant) to an immunodeficient mouse and a treatment with a combination of dexamethasone and RK-20449 was applied. Thereafter, MLL cells were taken from the mouse and transplanted to another immunodeficient mouse (secondary transplantation). The results are shown in the graphs as FIG. 7. The cases treated with dexamethasone alone and RK-20449 alone were used as controls (for comparison)."}, "[3]": {"system": "MLL cells (MLL-AF9 ALL cell) in the bone marrow", "experiment": "Leukemia humanized mouse (MLL-AF9), human leukemia cells in bone marrow (flow cytometry, hCD45/DAB staining)", "type": "in vivo", "description": "(§1) NOD. Cg-Prkdc^scid Il2rg^tmlWjl/Sz (NOD/SCID/IL2rg^null, NSG) mice were developed by subjecting a complete null mutation in the Il2rg gene locus to back cross with NOD. Cg-Prkdc^scid (NOD/SCID) lineage, in the Jackson Laboratory (Bar Harbor, Me. state, USA) (Shultz, L. D. et al., Multiple defects in innate and adaptive immunologic function in NOD/LtSz-scid mouse. J. Immunol. 154, 180-191 (1995)). The mice were raised by feeding irradiated food and acidified water in the animal facilities of RIKEN and the Jackson Laboratory in accordance with the guideline established by the Institutional Animal Committees and maintained under bacterial flora specified.\n(§2) NSG mice in the neonatal period were exposed to radiation (1.5 G) and then patient-derived MLL cells (MLL-AF9) were transplanted to the mice. After the presence of the human leukemia cells in the peripheral blood was confirmed by flow cytometry based on the presence of hCD45+CD19+, treatment of the mice (leukemia humanized mice) with dexamethasone (70 mg/kg IP daily) and/or RK-20449 (30 mg/kg IP BID, twice a day) or both was started.\nAfter the treatment, the mice were euthanized and the appearance frequency of human leukemia cells in the bone marrow was determined by flow cytometry. At the same time, one of the femur bones was fixed in PFA and […]-thin sections were prepared. […]"}, "[4]": {"system": "patient-derived MLL cells (MLL-AF9)", "experiment": "Leukemia humanized mouse (MLL-AF9), human leukemia cells in peripheral blood", "type": "in vivo", "conditions": "MLL-AF9 cases in NSG mice; dexamethasone 70 mg/kg IP daily and/or RK-20449 30 mg/kg IP BID; FIG. 1-3", "description": "as §1, §2"}}, "note": "Entries after “also recorded” stand apart in the source; their conditions may differ. For at least one compound, name, drawing or mass did not settle the structure.", "data": [{"smiles": "C[C@@H]1C[C@H]2[C@@H]3CCC4=CC(=O)C=C[C@]4(C)[C@@]3(F)[C@@H](O)C[C@]2(C)[C@@]1(O)C(=O)CO", "note": "[dexamethasone]", "values": [{"measurement": "invasion of leukemia cells in liver and kidney", "setting": "[1]", "value": "not enough to dramatically improve invasion of leukemia cells"}, {"measurement": "MLL cells in secondary transplantation recipient (proliferation after transplantation)", "setting": "[2]", "value": "MLL cells were present in significantly high percentages"}, {"measurement": "human leukemia cells stained brown (hCD45, DAB) in bone marrow sections", "setting": "[3]; MLL-AF9, femur sections after treatment, FIG. 5", "value": "a large number of human leukemia cells (stained brown) are present in the bone marrow"}, {"measurement": "medicinal effect in the bone marrow (appearance frequency of human leukemia cells, flow cytometry)", "setting": "[3]; MLL-AF9 case, after treatment, FIG. 4", "value": "A sufficient therapeutic effect was not obtained"}, {"measurement": "chimerism (percentage) of human leukemia cells in the mouse peripheral blood", "setting": "[4]", "value": "Sensitivity to the steroid varies depending on the case; also recorded: impossible to expect complete cure of MLL"}]}]}
